Some results were stated once for a whole list of compounds, not compound by compound.
Key:
[1] = tested on: Q-biotype strain of Bemisia tabaci (Neonicotinoid resistant); test: Control of neonicotinoid resistant tobacco whitefly (Bemisia tabaci), spray bioassays on cotton seedlings / cotton leaf discs; assay type: in vivo; settings: for control of the Q-biotype (Neonicotinoid resistant) strain of Bemisia tabaci: 200 ppm; for resistance factor: concentration for set mortality (i.e. 80%) in Q-biotype resistant strain divided by that in susceptible Bemisia tabaci strain
[2] = tested on: FRC-P strain of Myzus persicae (Neonicotinoid resistant); test: Control of neonicotinoid resistant green peach aphid (Myzus persicae), spray bioassays on pea seedlings / Chinese cabbage discs; assay type: in vivo; settings: for control of the FRC-P (Neonicotinoid resistant) strain of Myzus persicae: 200 ppm; for resistance factor (RF80): concentration for set mortality (i.e. 80%) in FRC-P resistant strain divided by that in susceptible Myzus persicae strain

Compound	control of the Q-biotype (Neonicotinoid resistant) strain of Bemisia tabaci [1]	resistance factor [1]	control of the FRC-P (Neonicotinoid resistant) strain of Myzus persicae [2]	resistance factor (RF80) [2]
N#CC1(c2cncc(Cl)c2)CC2CCC(C1)N2CC(F)(F)F (stereo not drawn) [Compound 1.003]	at least 80%	≤ 20	at least 80%	≤ 20
CCC(=O)CN1C2CCC1CC(C#N)(c1cncc(Cl)c1)C2 (stereo not drawn) [Compound 1.016]	at least 80%	≤ 20	at least 80%	≤ 20
C#CC(C)(C)N1C2CCC1CC(C#N)(c1cncc(Cl)c1)C2 (stereo not drawn) [Compound 1.024]	at least 80%	≤ 20	at least 80%	≤ 20
N#CC1(c2cncc(Cl)c2)CC2CCC(C1)N2Cc1cnoc1 (stereo not drawn) [Compound 1.060]	at least 80%	≤ 20	at least 80%	≤ 20
CC(=O)C(C)N1C2CCC1CC(C#N)(c1cncc(Cl)c1)C2 (stereo not drawn) [Compound 1.065]	at least 80%	≤ 20	at least 80%	≤ 20
CCN1C2CCC1CC(C#N)(c1cncc(Cl)c1)C2 (stereo not drawn) [Compound 1.072]	at least 80%	≤ 20	at least 80%	≤ 20
CC(C)N1C2CCC1CC(C#N)(c1cncc(Cl)c1)C2 (stereo not drawn) [Compound 1.075]	at least 80%	≤ 20	at least 80%	≤ 20
N#CC1(c2cncc(Cl)c2)CC2CCC(C1)N2CC(F)(F)C(F)(F)F (stereo not drawn) [Compound 1.108]	at least 80%	≤ 20	at least 80%	≤ 20
CCOCCN1C2CCC1CC(C#N)(c1cncc(Cl)c1)C2 (stereo not drawn) [Compound 1.117]	at least 80%	≤ 20	at least 80%	≤ 20
COC(=O)C(C)N1C2CCC1CC(C#N)(c1cncc(Cl)c1)C2 (stereo not drawn) [Compound 1.182]	at least 80%	≤ 20	at least 80%	≤ 20
N#CCCN1C2CCC1CC(C#N)(c1cncc(Cl)c1)C2 (stereo not drawn) [Compound 1.203]	at least 80%	≤ 20	at least 80%	≤ 20
C=COC(=O)N1C2CCC1CC(C#N)(c1cncc(Cl)c1)C2 (stereo not drawn) [Compound 1.204]	at least 80%	≤ 20	at least 80%	≤ 20
CN1C2CCC1CC(C#N)(c1cncc(Cl)c1)C2 (stereo not drawn) [Compound 1.223]	at least 80%	≤ 20	at least 80%	≤ 20
CCCCN1C2CCC1CC(C#N)(c1cncc(Cl)c1)C2 (stereo not drawn) [Compound 1.224]	at least 80%	≤ 20	at least 80%	≤ 20
C#CC(C)N1C2CCC1CC(C#N)(c1cncc(Br)c1)C2 (stereo not drawn) [Compound 2.017]	at least 80%	≤ 20	at least 80%	≤ 20
CCN1C2CCC1CC(C#N)(c1cncc(Br)c1)C2 (stereo not drawn) [Compound 2.072]	at least 80%	≤ 20	at least 80%	≤ 20
CC(C)N1C2CCC1CC(C#N)(c1cncc(Br)c1)C2 (stereo not drawn) [Compound 2.075]	at least 80%	≤ 20		
C=CC(C)N1C2CCC1CC(C#N)(c1cncc(Br)c1)C2 (stereo not drawn) [Compound 2.285]	at least 80%	≤ 20		
COCC(C)N1C2CCC1CC(C#N)(c1cncc(Br)c1)C2 (stereo not drawn) [Compound 2.291]	at least 80%	≤ 20		
C=C(Cl)CN1C2CCC1CC(C#N)(c1cncc(Br)c1)C2 (stereo not drawn) [Compound 2.297]	at least 80%	≤ 20		
N#CC1(c2cncc(Br)c2)CC2CCC(C1)N2C1CCC1 (stereo not drawn) [Compound 2.320]	at least 80%	≤ 20		
C#CC(C)N1C2CCC1CC(C#N)(c1cncc(F)c1)C2 (stereo not drawn) [Compound 3.017]	at least 80%	≤ 20		
C#CCN1C2CCC1CC(C#N)(c1cncc(F)c1)C2 (stereo not drawn) [Compound 3.042]	at least 80%	≤ 20		
